Test results reported in paper doi:10.1101/2025.02.27.640678.
No constants are given. Whether binding was seen depends on the method and setting. Some results given as binding are weak or reduced against the parent protein; the word gives no strength.

By UniProt entry, the sequences of proteins in these tests, tags left out.
UniProt P08670: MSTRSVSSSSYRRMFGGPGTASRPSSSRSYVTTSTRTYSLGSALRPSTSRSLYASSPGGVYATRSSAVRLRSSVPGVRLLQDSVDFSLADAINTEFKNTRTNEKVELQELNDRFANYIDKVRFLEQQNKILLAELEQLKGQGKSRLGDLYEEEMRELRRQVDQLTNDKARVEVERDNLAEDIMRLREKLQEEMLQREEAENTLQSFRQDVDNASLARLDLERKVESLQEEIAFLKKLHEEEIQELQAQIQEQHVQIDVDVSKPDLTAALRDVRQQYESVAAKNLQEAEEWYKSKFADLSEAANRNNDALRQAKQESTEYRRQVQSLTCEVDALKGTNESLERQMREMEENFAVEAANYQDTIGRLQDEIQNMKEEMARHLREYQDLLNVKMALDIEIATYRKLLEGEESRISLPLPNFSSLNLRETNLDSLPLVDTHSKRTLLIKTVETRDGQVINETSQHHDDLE

Molecular target: recombinant full-length vimentin (UniProt P08670)
Assay: negative stain electron microscopy

Substance: recombinant full-length vimentin (from UniProt P08670 1-466)
- binding: binds
